## Percent effect of library compounds

Protein sequences, listed by entry. Tags and fused reporters are not part of them. Residues count along the entry.
UniProt A4I591, 1-473: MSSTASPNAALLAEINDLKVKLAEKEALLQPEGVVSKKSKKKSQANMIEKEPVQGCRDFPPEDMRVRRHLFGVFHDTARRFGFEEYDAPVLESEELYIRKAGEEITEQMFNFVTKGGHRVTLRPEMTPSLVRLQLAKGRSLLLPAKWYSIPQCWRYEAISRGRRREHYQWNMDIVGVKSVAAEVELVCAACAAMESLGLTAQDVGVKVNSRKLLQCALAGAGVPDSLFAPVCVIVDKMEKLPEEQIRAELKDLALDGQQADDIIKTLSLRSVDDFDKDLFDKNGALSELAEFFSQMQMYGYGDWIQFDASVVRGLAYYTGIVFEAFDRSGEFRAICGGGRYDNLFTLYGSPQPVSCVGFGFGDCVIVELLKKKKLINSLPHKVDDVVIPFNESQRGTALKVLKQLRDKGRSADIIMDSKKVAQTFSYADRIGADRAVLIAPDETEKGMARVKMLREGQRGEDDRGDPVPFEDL

Data taken from ChEMBL document CHEMBL3988442, “University of Dundee, Small-Polar-MMV Screening Library” (2021).

Each number is a percent effect as filed.
How 0% and 100% were set is not recorded. Most values in the screen are low, and negative values occur.
This is an unselected part of the compounds tested.

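Enzyme assay of histidyl-tRNA synthetase; the read-out is not stated. Target: Histidine-tRNA ligase, Leishmania infantum (UniProt A4I591). Tested at 30 µM. Higher reads as stronger inhibition (inferred: compounds with an IC50 in retests scored well above the rest). The assay is labelled LdHisRS but filed under L. infantum. Of about 69,000 compounds tested this way, about 410 (0.6%) reached 50% or more in at least one test.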

| Compound | percent effect |
|---|---|
| `OCCn1nccc1C1CCN(CCOc2ccccc2F)CC1` | 14.91 |
| `CNC(=O)CN1CCN(C(=O)Nc2ccc(C)s2)CC1` | 32.88 |
| `CN(C)c1nc(N)nc(CN2CCCC(c3ccccc3)CC2)n1` (centres unmarked) | 9.804 |
| `Cc1csc(N2CCCN(C(=O)c3cnns3)CC2)n1` | 6.757 |
| `Cn1ccnc1CCC1CCCCN1Cc1cnc(N2CCCC2)nc1` (centres unmarked) | 13.27 |
| `CC(=O)Nc1ccc(-n2cncn2)c(F)c1` | 3.67 |
| `CCS(=O)(=O)N1CCC2(CC1)CN(c1cncnc1)C(=O)CO2` | 23.08 |
| `CCCc1ccc(S(=O)(=O)NCCNC(=O)c2ccoc2)cc1` | 13.22 |
| `Cc1ccc(CN2CCc3ncnc(OC(C)C)c3CC2)s1` | 33.33 |
| `COc1ncccc1C(=O)N1CCCC1c1nc(-c2ccccc2)n[nH]1` (centres unmarked) | 8.602 |
| `Cc1cccc(C(=O)N2CCCn3cnc(CN4CCCC4=O)c3C2)n1` | -2.778 |
| `CNc1cc(-c2ccccc2CN)c2cc[nH]c2n1` | 80.72 |
| `CCN1CC(CN2CCOCC2)Oc2ncccc2C1=O` (centres unmarked) | 12.37 |
| `O=C1CO[C@H]2CN(Cc3ccc(F)c(F)c3)C[C@H]2N1` | 1.351 |
| `COc1ccccc1-c1nnc([C@H]2CCN(C(=O)C3CC3)C2)o1` | 22.22 |
| `O=C1CC[C@]2(CC[C@@H](NCc3cccnc3)CC2)N1Cc1ccccc1` | 13.46 |
| `Cc1ccc2[nH]c3c(c2c1)CN(C(=O)CN(C)CC1OCCO1)CC3` | 13.04 |
| `O=C(CCn1cccn1)N1CCN(CC(F)F)CC1` | 21.54 |
| `CC(=O)Nc1c(C)cnn1Cc1cc(F)ccc1F` | 4.854 |
| `CN1CCCc2cc(CNC(=O)c3ccc(NC4CC4)nc3)ccc21` | 13.51 |
| `Cc1noc(C)c1CN1CCN(C)c2ncccc2C1` | 11 |
| `Brc1cnc(NCCCOCC2CCOCC2)nc1` | 13.7 |
| `CN(CCCC1CCCO1)C(=O)c1cccc(C#N)c1` (centres unmarked) | 6.667 |
| `O=C(CCc1ccc(Br)cc1)NCCc1nnc[nH]1` | 6.667 |
| `CCc1nnc2n1CCN(Cc1csc(-c3ncccn3)n1)C2` | 12.12 |
| `CC(Sc1nnnn1C1CCOCC1)C(F)(F)F` (centres unmarked) | -8.065 |
| `CCc1nc2c(c(NCc3nc(-c4cccnc4)no3)n1)CCNCC2` | 3.226 |
| `CCN(C)C1COC2(CCN(C(=O)c3cccc(Cl)c3)CC2)C1` (centres unmarked) | 11.65 |
| `Cc1ccsc1-c1nccn1CCS(C)(=O)=O` | 23.08 |
| `CC(C)CN1CCC2(CCCNC2)C1=O` (centres unmarked) | 21.15 |
| `CCN(Cc1ccco1)C(C)c1nc(C)no1` (centres unmarked) | 30 |
| `CCOCc1ncn2c1CN(S(=O)(=O)c1cccc(C)c1)CC2` | 12.33 |
| `O=C1O[C@@H]2CN(Cc3cccc(O)c3)C[C@@H]2N1CCCN1CCOCC1` | 10 |
| `Nc1nccnc1C1CN(C(=O)c2ccnnc2)CCO1` (centres unmarked) | 13.68 |
| `CN(CC1(CO)CCC1)c1nc2c(c(=O)[nH]1)Cc1ccccc1OC2` | 15.5 |
| `CSCc1noc(CNC2CCCC(C)(C)C2)n1` (centres unmarked) | 8.197 |
| `O=C(NCCCn1ccnc1)N1CCN(c2cccs2)CC1` | 28.12 |
| `CCOC(=O)C1CCN(Cc2c(O)ccc3oc4c(c23)CCCC4)CC1` | 13.33 |
| `O=C(CC1CCCC1)N1C[C@@H]2CN(Cc3ccoc3)CCO[C@@H]2C1` | 15 |
| `COC(=O)CCN(CC1CCCO1)C(=O)Cc1ccc(OC)c(OC)c1` (centres unmarked) | 1.667 |
| `COCCN(Cc1ccoc1)C(=O)c1cccnc1SC` | 8.738 |
| `Cc1cnn(C2CCCN(C(=O)c3ccccc3-n3cnnn3)C2)c1` (centres unmarked) | 4.63 |
| `Cc1ccc2nc(-c3cnc(N)nc3)c(C)c(C(=O)N(C)C)c2c1` | 5.983 |
| `Cc1cc(NC(=O)NCCc2ccc3c(c2)OCCO3)n(C)n1` | 24.24 |
| `O=C(NCCC1=CCCCC1)Nc1cc(C(F)(F)F)c[nH]c1=O` | 14.68 |
| `Cc1ccc(OCc2nnc(SCC3CCCN(C)C3)o2)cc1` (centres unmarked) | 2.632 |
| `Cc1c(NC(=O)c2noc3c2CCCC3)cnn1C` | -6.186 |
| `O=C(c1ccoc1)N1CC[C@H]2[C@H]1CCN2S(=O)(=O)C1CC1` | 14.04 |
| `CC(C)CNC(=O)COc1cccc[n+]1[O-]` | 10.96 |
| `COCCN1CCC2(CC1)CC(NC(=O)COC)c1ccccc1O2` (centres unmarked) | 0 |
| `O=C(CCC1CCCC1)N1CCCC(c2ncc3c(n2)CCNC3)C1` (centres unmarked) | 30 |
| `O=C(C(CNCc1ccccc1O)c1ccccc1)N1CCOCC1` (centres unmarked) | 3.529 |
| `CCOc1ccccc1C(=O)N1CCCC1c1ncc2c(n1)CCNC2` (centres unmarked) | -5.714 |
| `CCN(C(=O)c1ccc2nnc(C3CCN(CCOC)C3)n2c1)C(C)C` (centres unmarked) | 4 |
| `O=C(Cc1ccccc1F)N1CCN(C(=O)c2cccc(F)c2)CC1` | 14.29 |
| `Cc1ncc(CNC(=O)NC2CCN(C3CCCC3)CC2)s1` | 9.639 |
| `COCCn1ccc(NC(=O)Nc2ccc(C)cc2)n1` | 9.434 |
| `COc1ccccc1CN(Cc1nc(CC(C)C)no1)C1CC1` | 15.66 |
| `COc1ccc(CNC(=O)N2CCC(Cc3cnn(C)c3)C2)cc1C` (centres unmarked) | 0 |
| `CC(C#N)CSc1ccccc1NCC(=O)NC1CCCCC1` (centres unmarked) | 26.03 |
| `COc1c(C)cnc(CN2CCC(N(C)C(C)C(N)=O)CC2)c1C` (centres unmarked) | 10.96 |
| `Cc1c(NC(=O)NC2CCCC2)cccc1C(=O)N1CCSCC1` | 13.7 |
| `CC(C)c1nc2oc(C(=O)N3CCOCC3)c(N)c2c2c1CCCC2` | 2.174 |
| `CN1CCN(C[C@@H]2OC[C@H]3CN(CCc4ccccc4)CC[C@H]32)CC1` | 22.64 |
| `CC(C)N(C)S(=O)(=O)N1CCCC1CC(=O)c1cccs1` (centres unmarked) | -3.226 |
| `CN(Cc1ccc(F)c(F)c1)Cc1cc2c(cc1Br)OCCO2` | 22.67 |
| `O=C(C1CC1)N1CCC2(CC1)CNCc1ccccc12` | 18.97 |
| `CC(C)NC(=O)c1nc2c(s1)CCCN2c1ccccc1` | 31.62 |
| `Cc1ccc(CNC(=O)Cc2c(C)nc3c(c2C)c(=O)[nH]n3C)cc1` | 11.5 |
| `Cc1nccn1CCCN1CCCC(c2nccn2C)C1` (centres unmarked) | 22.35 |
| `CC(C)CNC(=O)C(C)N1CCN(C2CCN(C(C)C)CC2)CC1` (centres unmarked) | 15.08 |
| `Cc1ccc(-c2noc(CN3CCC(N4CCNC4=O)CC3)n2)cc1` | 13.91 |
| `O=C(NCCC(=O)N1CCCC1)C(OC1CCCC1)c1ccccc1` (centres unmarked) | 1.587 |
| `CC1CN(CC(=O)Nc2nncs2)CCN1c1nccs1` (centres unmarked) | 15.38 |

The last 5 entries again:

Compound	percent effect
Cc1nccn1CCCN1CCCC(c2nccn2C)C1 (centres unmarked)	22.35
CC(C)CNC(=O)C(C)N1CCN(C2CCN(C(C)C)CC2)CC1 (centres unmarked)	15.08
Cc1ccc(-c2noc(CN3CCC(N4CCNC4=O)CC3)n2)cc1	13.91
O=C(NCCC(=O)N1CCCC1)C(OC1CCCC1)c1ccccc1 (centres unmarked)	1.587
CC1CN(CC(=O)Nc2nncs2)CCN1c1nccs1 (centres unmarked)	15.38